For assay [1], the target named is HA-tagged Q330X NEMO (human) (UniProt Q9Y6K9). Description: co-IP; HA-tagged NEMO precipitated with anti-HA agarose beads (4 h, 4°C) from lysates of transfected HEK293T cells, stimulated with human IL-1β (25 ng/ml, 15 min) or left untreated; lysis and washes in 50 mM HEPES pH 7.4, 150 mM NaCl, 1% Triton, 10% glycerol, 30 mM NEM; immunoblot for IKKβ, HOIP and M1-ubiquitin.

Sequences of proteins named here, by UniProt entry; tags and fusion partners are left off. A change or cut given only in a name is not applied to a line headed by its entry. A line that says so, or that is headed by a name, gives the form on record, which may keep a tag or linker. Residues count along the entry.
UniProt Q9Y6K9: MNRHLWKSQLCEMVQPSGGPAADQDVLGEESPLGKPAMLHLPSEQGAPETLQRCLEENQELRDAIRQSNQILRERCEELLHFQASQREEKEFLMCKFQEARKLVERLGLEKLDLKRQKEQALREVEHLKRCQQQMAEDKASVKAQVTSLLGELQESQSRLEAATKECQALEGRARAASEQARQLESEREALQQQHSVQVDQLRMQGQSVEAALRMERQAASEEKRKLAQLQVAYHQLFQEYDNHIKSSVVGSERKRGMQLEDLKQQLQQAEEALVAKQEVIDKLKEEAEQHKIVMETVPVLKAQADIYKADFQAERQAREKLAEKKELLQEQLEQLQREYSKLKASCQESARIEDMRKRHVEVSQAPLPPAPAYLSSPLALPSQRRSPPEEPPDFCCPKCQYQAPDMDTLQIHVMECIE
HA-tagged WT NEMO: residues 2-419 of Q9Y6K9
HA-tagged Q330X NEMO: residues 2-329 of Q9Y6K9
UniProt Q96EP0: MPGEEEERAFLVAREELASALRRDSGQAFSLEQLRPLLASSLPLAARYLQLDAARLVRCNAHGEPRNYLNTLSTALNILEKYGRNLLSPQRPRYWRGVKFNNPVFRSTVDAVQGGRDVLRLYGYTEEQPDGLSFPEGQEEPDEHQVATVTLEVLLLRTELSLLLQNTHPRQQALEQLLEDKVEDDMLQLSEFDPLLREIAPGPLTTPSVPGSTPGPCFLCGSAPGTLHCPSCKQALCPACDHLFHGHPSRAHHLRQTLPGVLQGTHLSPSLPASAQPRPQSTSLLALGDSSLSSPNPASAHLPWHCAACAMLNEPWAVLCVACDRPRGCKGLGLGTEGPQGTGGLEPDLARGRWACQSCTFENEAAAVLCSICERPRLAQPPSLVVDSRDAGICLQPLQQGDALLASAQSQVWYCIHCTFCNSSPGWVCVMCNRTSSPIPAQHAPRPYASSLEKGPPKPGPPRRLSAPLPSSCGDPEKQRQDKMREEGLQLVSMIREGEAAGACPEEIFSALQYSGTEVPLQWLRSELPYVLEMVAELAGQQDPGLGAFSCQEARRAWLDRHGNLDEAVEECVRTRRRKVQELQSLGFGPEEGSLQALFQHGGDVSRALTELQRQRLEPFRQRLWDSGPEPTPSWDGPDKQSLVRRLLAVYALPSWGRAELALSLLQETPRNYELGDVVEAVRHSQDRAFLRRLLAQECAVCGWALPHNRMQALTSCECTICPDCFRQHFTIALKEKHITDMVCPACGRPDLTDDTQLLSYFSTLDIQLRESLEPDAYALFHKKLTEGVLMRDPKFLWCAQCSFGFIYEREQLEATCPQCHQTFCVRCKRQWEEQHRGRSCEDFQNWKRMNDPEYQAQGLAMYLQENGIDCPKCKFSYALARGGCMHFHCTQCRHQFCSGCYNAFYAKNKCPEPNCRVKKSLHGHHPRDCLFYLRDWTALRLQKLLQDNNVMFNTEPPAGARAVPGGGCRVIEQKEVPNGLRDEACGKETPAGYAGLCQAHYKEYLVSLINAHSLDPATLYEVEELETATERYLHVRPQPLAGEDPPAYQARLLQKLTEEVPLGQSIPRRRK

The target of assay [2] is HA-tagged WT NEMO (human) (UniProt Q9Y6K9). The assay is described as above.

For one substance, binding results are on record in article PMC9889916.

Results are given in words; binding and its absence hold for the method and conditions named. Binding seen in cells or lysates may run through a third protein. Some entries that bind do so weakly or less than the wild type.

For the substance “HOIP (HOIL-1-interacting protein or RNF31) (from UniProt Q96EP0 1-1072) (enzyme)”, the values for the binding entry in assay [1] and in assay [2] were “no binding” and “binds”, respectively.
